For experiment [1], the target named is HDAC4 (rat (endogenous in soleus muscle)) (UniProt Q99P99). As to the kind of experiment: condition: only 24 h of hindlimb unloading with Tasquinimod treatment (10 mg/kg/day); co-IP; lysate of soleus muscle of rats after 24 h of hindlimb unloading with Tasquinimod treatment (HU + T, 10 mg/kg/day orally, 7 days before and during HU); IP with rabbit polyclonal anti-HDAC4, blot for MEF2-D; same buffer; non-specific IgG as negative control.

Protein sequences, listed by entry. Tags and fused reporters are not part of them.
UniProt Q99P99: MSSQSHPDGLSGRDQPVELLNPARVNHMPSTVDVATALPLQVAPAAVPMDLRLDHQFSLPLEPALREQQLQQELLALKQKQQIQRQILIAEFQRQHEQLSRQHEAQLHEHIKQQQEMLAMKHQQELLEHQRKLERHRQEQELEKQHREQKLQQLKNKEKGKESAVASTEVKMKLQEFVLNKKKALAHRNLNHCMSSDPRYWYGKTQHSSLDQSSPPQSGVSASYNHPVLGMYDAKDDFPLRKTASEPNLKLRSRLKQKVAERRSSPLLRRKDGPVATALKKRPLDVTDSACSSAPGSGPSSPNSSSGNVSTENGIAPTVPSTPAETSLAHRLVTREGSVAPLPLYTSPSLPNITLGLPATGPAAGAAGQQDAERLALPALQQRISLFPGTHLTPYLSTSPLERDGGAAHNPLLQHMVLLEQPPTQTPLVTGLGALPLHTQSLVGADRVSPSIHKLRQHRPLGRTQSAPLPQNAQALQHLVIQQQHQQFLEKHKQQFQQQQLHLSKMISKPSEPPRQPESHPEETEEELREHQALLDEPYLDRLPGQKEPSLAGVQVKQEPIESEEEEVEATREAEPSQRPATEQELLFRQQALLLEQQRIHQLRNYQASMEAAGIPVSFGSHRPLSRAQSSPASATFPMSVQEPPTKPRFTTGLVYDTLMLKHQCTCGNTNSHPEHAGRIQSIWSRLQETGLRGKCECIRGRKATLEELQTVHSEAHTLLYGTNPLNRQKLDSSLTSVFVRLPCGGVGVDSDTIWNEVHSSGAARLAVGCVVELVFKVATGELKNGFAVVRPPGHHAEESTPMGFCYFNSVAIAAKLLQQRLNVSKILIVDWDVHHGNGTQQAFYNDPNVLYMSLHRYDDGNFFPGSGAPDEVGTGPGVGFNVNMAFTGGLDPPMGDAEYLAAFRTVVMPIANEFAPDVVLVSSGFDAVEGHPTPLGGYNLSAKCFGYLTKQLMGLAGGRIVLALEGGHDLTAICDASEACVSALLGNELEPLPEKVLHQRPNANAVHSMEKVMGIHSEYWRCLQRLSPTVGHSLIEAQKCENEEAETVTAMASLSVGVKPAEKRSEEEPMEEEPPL
UniProt O89038: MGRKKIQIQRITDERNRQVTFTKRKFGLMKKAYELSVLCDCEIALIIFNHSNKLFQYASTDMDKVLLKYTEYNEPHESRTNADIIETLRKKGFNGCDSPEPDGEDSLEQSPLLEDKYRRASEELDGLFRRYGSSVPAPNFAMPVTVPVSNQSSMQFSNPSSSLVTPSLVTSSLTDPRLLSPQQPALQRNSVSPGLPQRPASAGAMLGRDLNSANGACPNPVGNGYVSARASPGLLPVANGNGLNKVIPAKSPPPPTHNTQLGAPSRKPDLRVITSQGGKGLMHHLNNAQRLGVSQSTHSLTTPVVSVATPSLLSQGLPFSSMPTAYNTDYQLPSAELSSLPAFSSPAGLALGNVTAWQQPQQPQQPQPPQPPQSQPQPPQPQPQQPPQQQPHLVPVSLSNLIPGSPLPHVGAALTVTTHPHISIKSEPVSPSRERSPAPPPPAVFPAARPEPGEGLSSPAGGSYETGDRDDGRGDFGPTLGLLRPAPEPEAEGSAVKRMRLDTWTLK

Experiment [2] has the same target. As to the kind of experiment: condition: only control group (no hindlimb unloading); co-IP; lysate of soleus muscle of control rats (Con, no unloading); IP with rabbit polyclonal anti-HDAC4, blot for MEF2-D; same buffer; non-specific IgG as negative control.
Experiment [3] shares this target. As to the kind of experiment: co-IP; lysate of soleus muscle of rats after 24 h of hindlimb unloading (HU); IP with rabbit polyclonal anti-HDAC4 on coupling resin overnight at 4 °C, blot for MEF2-D; lysis buffer 0.025 M Tris, 0.15 M NaCl, 0.001 M EDTA, 1% NP-40, 5% glycerol, pH 7.4; non-specific IgG as negative control.

These are yes or no findings as the source states them, for the method shown. Binding seen in cells or lysates may run through a third protein. Some binding calls cover weakened binding; strength is not graded here.

Take MEF2-D (from UniProt O89038 1-507): the binding entry is reported as “no binding” in experiment [1], “no binding” in experiment [2] and “binds” in experiment [3].

The values are drawn from PMC8617770.
